{"source": "patent US5861476A", "about": "“Peptides and compounds that bind to the IL-1 receptor” (Affymax Technologies N.V., priority 1995, dated 1999)", "key": {"IL-1RtI [1]": {"molecular_target": "T1, IL-1RtI (Homo sapiens, UniProt P14778)", "T1 construct": "made in house; host or cells: recombinant host cells (one form soluble from baculovirus transformed host cells; another PIG-tailed and cleaved from the cell surface)", "T1 sequence (P14778 18-336)": "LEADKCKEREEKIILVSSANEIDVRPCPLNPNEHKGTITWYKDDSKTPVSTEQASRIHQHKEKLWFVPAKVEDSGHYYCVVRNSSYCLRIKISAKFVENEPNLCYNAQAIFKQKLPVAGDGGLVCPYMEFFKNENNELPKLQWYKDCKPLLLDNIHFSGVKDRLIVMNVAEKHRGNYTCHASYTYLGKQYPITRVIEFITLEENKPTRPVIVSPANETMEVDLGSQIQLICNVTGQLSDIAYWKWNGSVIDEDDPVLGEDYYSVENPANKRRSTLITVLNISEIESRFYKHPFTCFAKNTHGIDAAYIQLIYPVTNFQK", "test": "Inhibition of 125I-IL-1α binding to IL-1RtI (Example 3)", "details": "for IC50: inhibition of 125I-IL-1α binding to IL-1RtI, soluble peptide unless marked *", "experimental": "This example provides the results of experiments conducted to determine an approximate IC50 for certain peptides of the invention. IC50 as used herein refers to the concentration of a compound which will inhibit 50% of the binding between a receptor and its ligand, e.g. IL-1RtI and IL-1. Stock solutions of each peptide were prepared. The appropriate amount of the peptide was dissolved in DMSO, and then nineteen volumes of binding buffer (RPMI 1640, 1% BSA, 20 mM HEPES, pH 7.2-7.3, and 0.1% sodium azide) were added to yield a 1 mM peptide, 5% DMSO stock solution.\nOne assay utilized a truncated IL-1RtI which had been immobilized on 96-well plates with an appropriate antibody, typically a non-blocking high affinity antibody. In other assays, cells expressing \"full-length\" IL-1RtI were used with results that yielded IC50 values about 5 to 10 fold lower than those determined using the truncated receptor. The cells were seeded onto Falcon 3072 96-well plates at about 10^5 cells per well, and the plates were incubated overnight at 37° C. in media containing serum. The following morning, the cells were checked to ensure that the cells were confluent and adhered to the bottom of the wells.\nAccording to either assay protocol, the plates were then washed three times with binding buffer, and then 50 μl of binding buffer and 25 μl of a peptide solution (either the stock solution or a dilution thereof; each stock was subjected to five three fold dilutions) were added to each well. Then 25 μl of binding buffer containing ^125 I-IL-1α (final concentration of 90 pM) were added to each well to begin the assay. Each assay was carried out in duplicate. The plates were then incubated for two hours at 4° C. For peptides having particularly high affinities, the assay was run in 24 well plates allowing for higher levels of ligand (possible total volume of 2.5 ml instead of 100 μl in the 96 well plate), thereby minimizing the potential for ligand depletion.\nAfter the two hour incubation, the wells were rinsed three times with ice cold PBS (a semi-automated cell harvesting device was used to conduct the rinse). The receptors or cells were then detached from the plates by adding 100 μl of 0.1N NaOH to each well and incubating the plates at room temperature for 20 minutes. After the 20 minute incubation, about 75 μl of the suspension was counted on a gamma counter, and the IC50 for each peptide was determined using computer assistance and the results of the gamma counting."}, "IL-1RtI [2]": {"molecular_target": "T1, IL-1RtI", "test": "Fusion protein ELISA / IL-1α blocking assay on immobilized receptor", "assay_type": "binding", "details": "IL-1α added before the fusion protein"}}, "note": "At least one peptide structure holds a part that was inferred or is arguable (an end, a ring closure or a residue). For some of these results: At least one compound was matched to its structure with a doubt left. Where a SMILES comes first, the peptide text is derived from it. Where no end group is shown, it is not given here. [ ]: non-standard residue; d: D form. 1Nal = N[C@@H](Cc1cccc2ccccc12)C(=O)O", "data": [{"compound": "CSCC[C@H](NC(=O)[C@H](CCC(N)=O)NC(=O)[C@@H](NC(=O)[C@H](CO)NC(=O)[C@H](Cc1ccc(O)cc1)NC(=O)[C@@H]1CCCN1C(=O)[C@H](CCC(N)=O)NC(=O)[C@H](Cc1cccc2ccccc12)NC(=O)[C@H](Cc1ccc(O)cc1)NC(=O)[C@H](CC(C)C)NC(=O)[C@H](Cc1c[nH]cn1)NC(=O)[C@@H](N)CO)C(C)C)C(=O)O", "note": "[SHLY--Nap--QPYSVQM] (H-SHLY[1Nal]QPYSVQM-OH)", "values": [{"measurement": "IC50", "setting": "IL-1RtI [1]", "value": "≤ 100", "unit": "µM"}]}, {"compound": "RLVYWQPYSVQR [Peptide T6, RLVYWQPYSVQR]", "values": [{"measurement": "concentration at which the synthetic free peptide competes with IL-1α in binding to the IL-1R", "setting": "IL-1RtI [1]", "value": "micromolar concentration"}, {"measurement": "binding of fusion protein/phage to IL-1RtI blocked by IL-1α", "setting": "IL-1RtI [2]", "value": "inhibited by IL-1α"}]}, {"compound": "CC[C@H](C)[C@H](NC(=O)[C@H](CO)NC(=O)[C@H](Cc1ccc(O)cc1)NC(=O)[C@@H]1CCCN1C(=O)[C@H](CCC(N)=O)NC(=O)[C@H](Cc1cccc2ccccc12)NC(=O)[C@H](Cc1ccc(O)cc1)NC(=O)[C@@H](NC(=O)[C@H](CCSC)NC(=O)[C@@H](N)CC(N)=O)C(C)C)C(=O)N[C@@H](CCC(N)=O)C(=O)N[C@H](C(=O)O)[C@@H](C)O", "note": "[NMVY--Nap--QPYSIQT] (H-NMVY[1Nal]QPYSIQT-OH)", "values": [{"measurement": "IC50", "setting": "IL-1RtI [1]", "value": "≤ 100", "unit": "µM"}]}, {"compound": "CC(C)[C@H](NC(=O)[C@H](CO)NC(=O)[C@H](Cc1ccc(O)cc1)NC(=O)[C@@H]1CCCN1C(=O)[C@H](CCC(N)=O)NC(=O)[C@H](Cc1cccc2ccccc12)NC(=O)[C@H](Cc1ccc(O)cc1)NC(=O)[C@H](CC(=O)O)NC(=O)CNC(=O)[C@@H](N)CCCNC(=N)N)C(=O)N[C@@H](CCC(N)=O)C(=O)N[C@@H](CO)C(=O)O", "note": "[RGDY--Nap--QPYSVQS] (H-RGDY[1Nal]QPYSVQS-OH)", "values": [{"measurement": "IC50", "setting": "IL-1RtI [1]", "value": "≤ 100", "unit": "µM"}]}, {"compound": "CC(C)C[C@H](NC(=O)[C@H](CO)NC(=O)[C@H](Cc1ccc(O)cc1)NC(=O)[C@@H]1CCCN1C(=O)[C@H](CCC(N)=O)NC(=O)[C@H](Cc1cccc2ccccc12)NC(=O)[C@H](Cc1ccc(O)cc1)NC(=O)[C@@H](NC(=O)[C@H](CC(C)C)NC(=O)[C@@H](N)[C@@H](C)O)C(C)C)C(=O)N[C@@H](CCC(N)=O)C(=O)N[C@H](C(=O)O)[C@@H](C)O", "note": "[TLVY--Nap--QPYSLQT] (H-TLVY[1Nal]QPYSLQT-OH)", "values": [{"measurement": "IC50", "setting": "IL-1RtI [1]", "value": "≤ 100", "unit": "µM"}]}, {"compound": "CC(C)[C@H](N)C(=O)N[C@@H](Cc1ccc(O)cc1)C(=O)N[C@@H](Cc1cccc2ccccc12)C(=O)N[C@@H](CCC(N)=O)C(=O)N1CCC[C@H]1C(=O)N[C@@H](Cc1ccc(O)cc1)C(=O)N[C@@H](CO)C(=O)N[C@H](C(=O)N[C@@H](CCC(N)=O)C(=O)O)C(C)C", "note": "[VY--Nap--QPYSVQ] (H-VY[1Nal]QPYSVQ-OH)", "values": [{"measurement": "IC50", "setting": "IL-1RtI [1]", "value": "≤ 100", "unit": "µM"}]}]}
